According to PubChem BioAssay AID624297 (National Center for Advancing Translational Sciences (NCATS), 2012):
Out of some 340,000 compounds screened, about 6,200 (1.8%) were called active. Inconclusive means that the source gave no clear call. Such entries were picked first, then a sample of the others. Calls follow the shape of the dose curve; as a rule, active = well fitted activation curve with a large enough effect; inconclusive = small, poorly fitted or top-dose-only effect; inactive = no such curve, though single readings can be large or run the other way. Where the call is inconclusive, the potency comes from a doubtful curve fit.
Potency is read from the fitted curve at half-maximal effect.

Experiment: A quantitative high throughput screen for small molecules that induce DNA re-replication in SW480 colon adenocarcinoma cells. Also: nearly all actives have a fitted effect of over 55% in size. As to re-replication activation: % of control where 0% means no effect.
Settings: Hoechst DNA content imaging, 48 h; re-replication activation: at 46.1 µM (top of the series) unless noted
Outline: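 Hoechst fluorescence of nuclei (405 nm excitation, 500-530 nm emission) measured by plate-scanning imager after 48 hr compound exposure at 37 C; re-replication scored as increased number of nuclei with elevated intensity.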
In the case of `O=C(O)CCCC(=O)N1CC(=O)Nc2ccccc21`, the “re-replication activation” value was inactive: -8.37%.
In the case of `O=S(=O)(N/N=C1/CC(c2ccccc2)Oc2ccccc21)c1ccc(Br)cc1` (centres undefined), the Potency was inconclusive: 18.4 µM [activator, single point].
With `CC1CCN(C(=O)CNC(=O)c2ccc(Br)o2)CC1` the Potency was inconclusive: 0.164 µM [activator, full curve, poor fit].
With `CCCCn1nc(NC(=O)c2cccs2)c2cc3cc(OC)ccc3nc21` the Potency was active: 11.6 µM.
For `Cn1c(C(=O)NC2CCCCCC2)cc2c(=O)n(C)c3ccccc3c21`, the “re-replication activation” value was inactive: -10.2%.
With `COc1ccccc1CC(=O)Nc1cccc(C(=O)Nc2nccs2)c1` the “re-replication activation” value was inactive: -15.4%.
With `CCN(CC)C(=O)Cn1cc(C(=O)C(=O)N2CCN(c3ccc([N+](=O)[O-])cc3)CC2)c2ccccc21` the Potency was inconclusive: 29.1 µM [activator, partial curve, poor fit].
In the case of `CCN1C(=O)CS/C1=N\S(=O)(=O)c1ccc(Cl)cc1`, the “re-replication activation” value was inactive: -2.51%.
For `COc1ccc(-c2cc(C(F)(F)F)n3nc(C(=O)N4CCCCC4)cc3n2)cc1OC`, the Potency was inconclusive: 18.4 µM [activator, partial curve, poor fit].
For `N/C(=N\OC(=O)/C=C/c1ccccc1Cl)c1cccnc1`, the Potency was inconclusive: 3.26 µM [activator, partial curve, poor fit].
For `CCCCc1nc2cc(C(=O)N3CCC(OC)CC3)ccc2o1`, the “re-replication activation” value was inactive: 3.88%.
In the case of `COc1ccc(/C=C/CN2CCCC(CO)(Cc3cccc(Cl)c3)C2)cc1` (centres undefined), the Potency was inconclusive: 29.1 µM [activator, single point].
With `Cc1ccc(Nc2c(-c3ccc(N4CCOCC4)cc3)nc3cnccn23)cc1` the Potency was inconclusive: 20.6 µM [activator, partial curve, poor fit].
In the case of `CCOC(=O)c1cc2c(ccn2C)n1CC(=O)N(Cc1ccccc1)c1ccccc1`, the Potency was inconclusive: 31.6 µM [activator, single point].
In the case of `COc1ccc2c(c1)C(=O)[C@@H](OC(=O)NCc1ccc3c(c1)OCO3)[C@H](c1ccc(OC)c(Br)c1)O2`, the Potency was inconclusive: 32.6 µM [activator, partial curve, poor fit].
With `COc1ccc(CNC(=O)c2cc(=O)c3cc(C)c(C)cc3o2)cc1` the Potency was inconclusive: 29.1 µM [activator, single point].
For `COc1ccc(CCc2cc(OC)cc(=O)o2)cc1`, the “re-replication activation” value was inactive: -5.04%.
For `CCOc1ccc(-c2csc(Cn3c(CN4CCN(C)CC4)nc4ccccc4c3=O)n2)cc1`, the Potency was inconclusive: 29.1 µM [activator, single point].
With `COc1ccc(NC(=O)c2cc(OC)c(OC)c(OC)c2)cc1S(=O)(=O)N1CCCCC1` the “re-replication activation” value was inactive: 2.08%.
